Drawing on US20170073690A1, “ANTAGONISTS OF SLC38A9 AND THEIR USE IN THERAPY” (CEMM - Forschungzentrum Fuer Molekulare Medizin GMBH, priority 2014, published 2017), this text covers binding for one molecule.

Protein sequences, listed by entry. Tags and fused reporters are not part of them.
UniProt Q80X95: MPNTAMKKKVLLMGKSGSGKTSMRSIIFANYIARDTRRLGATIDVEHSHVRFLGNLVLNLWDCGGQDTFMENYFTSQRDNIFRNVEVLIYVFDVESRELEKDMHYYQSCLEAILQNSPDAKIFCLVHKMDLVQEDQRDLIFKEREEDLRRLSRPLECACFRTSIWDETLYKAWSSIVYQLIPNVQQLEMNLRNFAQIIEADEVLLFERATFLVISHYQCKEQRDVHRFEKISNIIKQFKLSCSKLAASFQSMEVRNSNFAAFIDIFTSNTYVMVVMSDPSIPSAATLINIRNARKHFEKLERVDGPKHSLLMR

Results are given in words; binding and its absence hold for the method and conditions named. In cells and extracts the contact can be indirect. Some binding calls cover weakened binding; strength is not graded here.

This experiment has as its target RAGA, murine, endogenous (NIH3T3 and Raw264.7 cells) (mouse) (UniProt Q80X95). As to the kind of experiment: endogenous co-IP, murine NIH3T3 and Raw264.7 lysates, immunoblot.

B1: SLC38A9, murine, endogenous (NIH3T3 and Raw264.7 cells) (protein, mouse, UniProt Q8BGD6 1-560, looked up)
chain: MASVDGDSRHLLSEVEHEVSPGPMNIQFDSSDLRSKRPFYIEPTNIVNVNDVIQRVSDHAAAMNKRIHYYSRLTTPADKALIAPDHVVPAPEECYVYSPLGSAYKLKSYTEGYGKNTSLVTIFMIWNTMMGTSILSIPWGIKQAGFTTGMCVIVLMGLLTLYCCYRVVKSRSTISTSDTSTWEYPDVCKHYFGSFGQWSSLLFSLVSLIGAMIVYWVLMSNFLFNTGKFIFNFIHHINDTDTVLSTNNSNPVICPNAGSGGRPDNSSMIFYNNNTEVQLFEKWWDKSRTVPFYLIGLLLPLLNFKSPSFFSKFNILGTVSVLYLIFVVTLKAVRLGFHLEFHWFVPTEFFVPEIRAQFPQLMGVLTLAFFIHNCIITLLKNNKNQENNVRDLCIAYMLVTLTYLYIGILVFASFPSPPLPKDCIEQNFLDNFPSSDILSFIARIFLLFQMMTVYPLLGYLARVQLLGHIFGDIYPSIFHVLILNLVIVGAGVTMACFYPNIGGIIRYSGAACGLAFVFIYPSLIYIISLHQEERLTWPKLVFHVIIIILGLANLIAQFFM
On to B1, for which the binding entry is listed as “binds”.
